Measurements from article PMC7432809 (International Journal of Molecular Sciences, 2020).

Assay: general procedure: Fmoc solid-phase peptide synthesis; Rink Amide ChemMatrix resin (loading 0.44–0.48 mmol/g); HCTU/DIEA
Details: whole synthesis, analytical UPLC-PDA; confirmed by UHPLC-Q-ToF MS, scale of the general procedure 0.165 mmol

| Substance | final purity (method not given) [%] |
| --- | --- |
| GKKPGGWKAK-NH2 | 97 |
| GKKPGWWKAK-NH2 | 98 |
| GKKPWGWKAK-NH2 | 98 |
| GKKPWWWKAK-NH2 | 99 |
| GKKWGGWKAK-NH2 | 98 |
| GKKWGWWKAK-NH2 | 98 |
| GKKWWGWKAK-NH2 | 95 |
| GKKWWWWKAK-NH2 | 100 |
| GRRPLLLRAR-NH2 | 97 |
| GRRPWWWRAR-NH2 | 100 |
| GRRWWWWRAR-NH2 | 100 |
